According to paper PMC12802937:

Biological target: T1, intein-WAC S4 (R630E) (human) (UniProt Q9BTA9)
T1 sequence: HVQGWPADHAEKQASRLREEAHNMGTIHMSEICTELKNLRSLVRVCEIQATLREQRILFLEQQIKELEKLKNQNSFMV
Experiment: pull-down; 15 μg intein-WAC incubated with 10 μg RNF-MD, then chitin-agarose resin; 20 mM TRIS (pH 7.5), 300 mM sodium chloride; SDS–PAGE; both purified

“RNF-MD S4i (D780K in RNF20) (human) (complex)” was tested, and the binding was “binds”.

Results are given in words; binding and its absence hold for the method and conditions named. A result given as binding can be weak or reduced; the word gives no strength.
